Measurements taken from patent publication US7932262B2 (Novartis AG, priority 2006, dated 2011).

The chains behind the UniProt entries cited, without tags or fusion partners.
UniProt O15530, whole entry: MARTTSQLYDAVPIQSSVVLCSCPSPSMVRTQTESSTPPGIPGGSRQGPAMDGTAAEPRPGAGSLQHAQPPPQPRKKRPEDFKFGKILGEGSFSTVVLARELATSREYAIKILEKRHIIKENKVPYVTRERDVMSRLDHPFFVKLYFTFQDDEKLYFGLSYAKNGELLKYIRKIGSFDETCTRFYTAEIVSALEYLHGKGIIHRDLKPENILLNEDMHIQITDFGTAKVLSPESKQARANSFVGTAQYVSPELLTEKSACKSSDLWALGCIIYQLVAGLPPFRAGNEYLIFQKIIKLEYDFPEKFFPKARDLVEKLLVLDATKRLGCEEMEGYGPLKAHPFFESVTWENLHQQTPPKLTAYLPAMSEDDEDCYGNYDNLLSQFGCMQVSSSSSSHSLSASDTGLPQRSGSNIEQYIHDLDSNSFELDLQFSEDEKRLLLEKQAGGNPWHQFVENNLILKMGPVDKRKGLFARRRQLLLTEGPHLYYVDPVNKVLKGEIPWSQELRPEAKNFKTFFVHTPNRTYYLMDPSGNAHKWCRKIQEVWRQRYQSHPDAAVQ

Tests used:
PDK1 kinase = PDK1 kinase (Homo sapiens, UniProt O15530); assay: PDK1 Kinase Alpha Screen Assay; type: biochemical
Procedure: 1. PDK1 Kinase Alpha Screen Assay
Reagents/Concentrations: The PDK1-4 peptide substrate, biotin-[…]-NH2, was purchased from the Tufts University Core Facility. The final concentration of PDK1-4 peptide substrate was 50 nM The ATP substrate (Adenosine-5′-triphosphate) was purchased from Roche Diagnostics. The final concentration of ATP substrate was 10 uM. Phospho-(Ser/Thr) PKA substrate antibody was purchased from Cell Signaling Technology. The final concentration of antibody was 0.3 mg/ml. The Alpha Screen Protein A detection kit containing donor and acceptor beads was purchased from PerkinElmer Life Sciences. The final concentration of both donor and acceptor beads was 25 μg/ml. Alpha Screen was used for detection. The biotinylated-PDK1-4 peptide was phosphorylated by PDK1 kinase using the ATP substrate. The biotinylated-PDK1-4 peptide substrate was bound to the streptavidin coated donor bead. The antibody was bound to the protein A coated acceptor bead. The antibody bound to the phosphorylated form of the biotinylated PDK-1 peptide substrate, bringing the donor and acceptor beads into close proximity. Laser irradiation of the donor bead at 680 nm generated a flow of short-lived singlet oxygen molecules. When the donor and acceptor beads were in close proximity, the reactive oxygen generated by the irradiation of the donor beads initiated a luminescence/fluorescence cascade in the acceptor beads. This process led to a highly amplified signal with output in the 530-620 nm range. Assays were carried out in 50 mM Tris, pH=7.5, 10 mM MgCl2, 0.1% Bovine Serum Albumin, 0.01% Tween-20, 2 mM Dithiolthreitol, 2.5% Dimethyl Sulfoxide. Reactions were stopped by adding 50 mM Tris, pH=7.5, 90 mM EDTA, 0.1% Bovine Serum Albumin, 0.01% Tween-20.
Procedure: To 10 μl of PDK1-4 peptide, 0.5 μl of test compound in dimethyl sulfoxide is added. PDK1 kinase and ATP are mixed. 10 μl of the PDK1 kinase/ATP mix is added to start the reaction. The reaction is allowed to proceed for 3-18 hours. The reactions are stopped by adding 10 μl of the EDTA-containing stop buffer. Beads are mixed with antibody. 25 μl of the bead/antibody mix is added to the stopped reactions. Plates are incubated at room temperature overnight to allow for detection development before being read. The assay is run is a 384-well format. […]

PC-3 cells = assay: Cell Proliferation Assay (Cell Titer Glo), PC-3 cell line; details: read-out: CPEC50 PC3
Procedure: (§1) IV. Cell Proliferation Assay Protocol:
(§2) A2780, PC-3, or PC3MM cells were seeded at 1000 cells/well in 100 μL/well (10.000 cells/mL) growth media in 96-well plates. Cells were allowed to adhere to the bottom of plates for 3-5 hours in a 37° C. 5% CO2 incubator. Compounds were dissolved in DMSO and then transferred to the cell plates. The cells were incubated with the compounds for 3 days in a 37° C. 5% CO2 incubator. The growth medium containing the compounds was then removed from the cells and fresh medium was added, followed by 100 μL of Cell Titer Glo assay reagent (Promega). This mixture was shaken for 1 minute and then incubated without shaking for 10 minutes. Activity determinations for the compounds were made by detection on a Trilux Instrument.
V. Cell Proliferation Assay Protocol: PC-3 Cell Line
PC-3 cells were seeded at 1000 cells/well in 100 μL/well (10.000 cells/mL) along with growth media into black-walled, clear bottom 96-well plates. The cells were allowed to adhere to the bottom of the plate for 3-5 hours in a 37° C. 5% CO2 incubator.
Test compounds were diluted to 500× in DMSO. The DMSO solutions of six of the compounds were transferred to the cells in the 96 well round bottom plate, column 2, row B-F. A 1:3 serial dilution of each compound was carried out. The serial dilution comprised adding 20 μL of DMSO to the wells containing the compounds and doing a 1:3 dilution across the plate from columns 2-10. Column 11 contained only DMSO. The serial dilution was carried out using a BioMek 2000 protocol “CP Serial Dilution using 250 μL tips” or “Proliferation Compound” (if using 20 μL tips).
To a 96 deep well block, columns 2-11 rows B-F, was transferred 500 μL of growth medium. Using the FX protocol “HH_CellAssay—2 μL to 500 μL”, 2 μL of compound from each cell of the compound plate was transferred to the corresponding cell in the 96 deep well block containing 500 μL of growth medium. […] The plates were then read using a Trilux instrument.

PC3MM cells = assay: Cell Proliferation Assay (Cell Titer Glo), PC3MM; details: read-out: CPEC50 PC3MM
Procedure: as §1, §2

IC50 (PDK1 kinase; read-out: PDK1 IC50) [µM]	EC50 (PC-3 cells) [µM]	IC50 (PDK1 kinase; read-out: PDK1 BV11261, head of the second part of Table 4: BV11261) [µM]	EC50 (PC3MM cells) [µM]	SMILES
< 5	< 5	–	–	FC(F)(F)c1ccc(Nc2ncc3cccc(-c4ccc(NCCN5CCCC5)nc4)c3n2)cc1
–	–	< 5	< 5	COc1c(-c2cnn(CC(C)C)c2)ccc2cnc(Nc3cc(CN4CCOCC4)cc(NC(C)=O)c3)nc12 [Compound 715, N-(3-(7-(1-isobutyl-1H-pyrazol-4-yl)-8-methoxyquinazolin-2-ylamino)-5-(morpholinomethyl)phenyl)acetamide]
< 5	< 5	–	–	CC(C)Cn1cc(-c2ccc3cnc(Nc4cccc(N5CCOCC5)c4)nc3c2)cn1
< 5	< 5	–	–	CC(C)Cn1cc(-c2ccc3cnc(Nc4ccc(N5CCOCC5)cc4)nc3c2)cn1

Like-named read-outs stand apart in the source and are kept apart here. The match of structure and compound is tentative.
